From PMC9226220 come the findings set out here.

By UniProt entry, the sequences of proteins in these tests, tags left out.
UniProt Q61937: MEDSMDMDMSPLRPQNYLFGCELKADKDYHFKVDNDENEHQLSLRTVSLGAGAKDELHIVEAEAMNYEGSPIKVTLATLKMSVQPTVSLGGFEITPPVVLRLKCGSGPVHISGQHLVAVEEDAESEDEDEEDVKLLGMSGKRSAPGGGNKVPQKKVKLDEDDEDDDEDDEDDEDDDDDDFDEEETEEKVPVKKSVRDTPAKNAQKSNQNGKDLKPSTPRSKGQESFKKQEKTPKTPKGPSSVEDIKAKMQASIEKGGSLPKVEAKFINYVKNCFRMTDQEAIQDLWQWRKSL

These are yes or no findings as the source states them, for the method shown. In cells and extracts the contact can be indirect. Some entries that bind do so weakly or less than the wild type.

The assay addresses T1, LIN28A (mouse (endogenous in ES cells)) (UniProt Q8K3Y3).
T1 sequence: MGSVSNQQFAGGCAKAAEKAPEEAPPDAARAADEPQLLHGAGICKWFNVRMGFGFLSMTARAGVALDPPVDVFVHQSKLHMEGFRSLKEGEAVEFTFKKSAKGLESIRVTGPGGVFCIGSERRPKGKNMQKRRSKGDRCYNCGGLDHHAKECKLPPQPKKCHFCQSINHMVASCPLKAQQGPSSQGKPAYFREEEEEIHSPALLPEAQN
The assay is described as follows: co-IP; endogenous LIN28A precipitated with anti-LIN28A (normal IgG as control) from RIPA lysate of ES cells, overnight at 4 °C, magnetic beads; Western blot. (In general: In western blotting, separated proteins are transferred to a membrane and probed.)

For “Nucleophosmin (NPM1) (from UniProt Q61937 1-292)”, the binding entry was “binds”.

B1: Fibrillarin (FBL) (protein, UniProt P35550 1-327)
chain: MKPGFSPRGGGFGGRGGFGDRGGRGGGRGGRGGFGGGRGGFGGGGRGRGGGGGGFRGRGGGGGRGGGFQSGGNRGRGGGRGGKRGNQSGKNVMVEPHRHEGVFICRGKEDALVTKNLVPGESVYGEKRVSISEGDDKIEYRAWNPFRSKLAAAILGGVDQIHIKPGAKVLYLGAASGTTVSHVSDIVGPDGLVYAVEFSHRSGRDLINLAKKRTNIIPVIEDARHPHKYRMLIAMVDVIFADVAQPDQTRIVALNAHTFLRNGGHFVISIKANCIDSTASAEAVFASEVKKMQQENMKPQEQLTLEPYERDHAVVVGVYRPPPKVKN
Take B1: the binding result was “binds”.
